± gives the standard deviation of the averaged measurements. The reference is the same well before dosing, and untreated signal decays as well.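 Labels refer to human fibroblasts, largely primary: uterine (C12385, HUF), lung (H6013), bone (Hs27A), adrenal (HADF), skin (WS1), plus mammary HMF and breast cancer-associated Hs343T. Cancer lines are basal-like or mesenchymal-like triple-negative breast cancer. The paper counts as hits responses shifting over 3x the replicate standard deviation. The tissue of the other fibroblasts is not given here.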
Test system: MDAMB436
Assay: relative JC-1 red fluorescence (viability) vs pre-drug, coculture with fibroblast (fraction); higher = more viable cancer cells
Description: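 JC-1 labelled TNBC cells cocultured 1:1 (1,500 cells each) with CellTrace Violet stained primary or stromal fibroblasts in 384-well plates in FluoroBrite medium, treated with one of 42 anticancer drugs at 0.1, 1, 10 or 100 uM. JC-1 red fluorescence (mitochondrial integrity in cancer cells only) was read by plate reader every 8 h for 72 h. Values are normalised to each well's pre-drug value. The stock of one drug was tenfold lower, so its dose labels may be too high.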

CCCCCOC(=O)Nc1nc(=O)n([C@@H]2O[C@H](C)[C@@H](O)[C@H]2O)cc1F [Capecitabine]
relative JC-1 red fluorescence
Conditions | 8 h | 16 h | 24 h | 32 h | 40 h | 48 h | 56 h | 64 h | 72 h
10 µM, coculture fibroblast: C12385 | 0.823 ± 0.023 | 0.7 ± 0.024 | 0.674 ± 0.038 | 0.583 ± 0.04 | 0.539 ± 0.05 | 0.51 ± 0.049 | 0.478 ± 0.048 | 0.455 ± 0.052 | 0.449 ± 0.042
10 µM, coculture fibroblast: H6013 | 0.8093 ± 0.0015 | 0.711 ± 0.034 | 0.686 ± 0.035 | 0.662 ± 0.05 | 0.636 ± 0.052 | 0.658 ± 0.068 | 0.616 ± 0.073 | 0.604 ± 0.079 | 0.557 ± 0.068
10 µM, coculture fibroblast: H6019 | 0.746 ± 0.021 | 0.687 ± 0.041 | 0.661 ± 0.054 | 0.576 ± 0.053 | 0.535 ± 0.06 | 0.511 ± 0.053 | 0.465 ± 0.046 | 0.436 ± 0.04 | 0.408 ± 0.036
10 µM, coculture fibroblast: H6076 | 0.643 ± 0.047 | 0.574 ± 0.056 | 0.554 ± 0.048 | 0.511 ± 0.042 | 0.498 ± 0.041 | 0.48 ± 0.039 | 0.484 ± 0.039 | 0.475 ± 0.033 | 0.462 ± 0.021
10 µM, coculture fibroblast: H6231 | 0.73 ± 0.036 | 0.639 ± 0.0097 | 0.565 ± 0.026 | 0.487 ± 0.029 | 0.462 ± 0.027 | 0.434 ± 0.017 | 0.415 ± 0.022 | 0.399 ± 0.024 | 0.3792 ± 0.0024
10 µM, coculture fibroblast: HADF | 0.804 ± 0.01 | 0.713 ± 0.011 | 0.696 ± 0.022 | 0.662 ± 0.035 | 0.651 ± 0.052 | 0.677 ± 0.064 | 0.609 ± 0.07 | 0.6 ± 0.067 | 0.561 ± 0.07
10 µM, coculture fibroblast: HCFa | 0.801 ± 0.029 | 0.737 ± 0.018 | 0.712 ± 0.038 | 0.675 ± 0.045 | 0.648 ± 0.042 | 0.661 ± 0.053 | 0.591 ± 0.045 | 0.579 ± 0.044 | 0.527 ± 0.04
10 µM, coculture fibroblast: HCPF | 0.746 ± 0.0075 | 0.597 ± 0.014 | 0.5832 ± 0.0057 | 0.507 ± 0.011 | 0.485 ± 0.021 | 0.444 ± 0.024 | 0.428 ± 0.028 | 0.411 ± 0.028 | 0.399 ± 0.027
10 µM, coculture fibroblast: HHSteC | 0.822 ± 0.011 | 0.743 ± 0.016 | 0.7201 ± 0.00078 | 0.6767 ± 0.0048 | 0.6715 ± 0.0027 | 0.683 ± 0.015 | 0.62 ± 0.026 | 0.604 ± 0.023 | 0.549 ± 0.023
10 µM, coculture fibroblast: HMF | 0.775 ± 0.021 | 0.599 ± 0.045 | 0.545 ± 0.019 | 0.487 ± 0.015 | 0.465 ± 0.017 | 0.425 ± 0.013 | 0.425 ± 0.011 | 0.4071 ± 0.0017 | 0.40327 ± 4.9e-05
10 µM, coculture fibroblast: HPFa | 0.8801 ± 0.0021 | 0.7951 ± 0.001 | 0.7605 ± 0.0034 | 0.7121 ± 3.5e-06 | 0.6906 ± 0.0044 | 0.6931 ± 0.0013 | 0.6171 ± 0.0018 | 0.5891 ± 0.0011 | 0.505 ± 0.0073
10 µM, coculture fibroblast: HUF | 0.852 ± 0.017 | 0.7261 ± 0.0034 | 0.686 ± 0.011 | 0.607 ± 0.013 | 0.545 ± 0.015 | 0.52 ± 0.019 | 0.494 ± 0.02 | 0.478 ± 0.016 | 0.47 ± 0.017
10 µM, coculture fibroblast: Hs5 | 0.7602 ± 0.0047 | 0.6273 ± 0.004 | 0.606 ± 0.033 | 0.554 ± 0.044 | 0.535 ± 0.054 | 0.49 ± 0.047 | 0.502 ± 0.061 | 0.469 ± 0.056 | 0.457 ± 0.056
10 µM, coculture fibroblast: Hs27A | 0.815 ± 0.038 | 0.75 ± 0.051 | 0.71 ± 0.045 | 0.686 ± 0.046 | 0.65 ± 0.058 | 0.716 ± 0.057 | 0.615 ± 0.068 | 0.599 ± 0.069 | 0.516 ± 0.063
10 µM, coculture fibroblast: Hs343T | 0.653 ± 0.064 | 0.608 ± 0.087 | 0.59 ± 0.091 | 0.546 ± 0.095 | 0.525 ± 0.093 | 0.482 ± 0.085 | 0.482 ± 0.07 | 0.478 ± 0.064 | 0.47 ± 0.064
10 µM, coculture fibroblast: WS1 | 0.763 ± 0.032 | 0.679 ± 0.017 | 0.64204 ± 0.00023 | 0.5503 ± 0.0033 | 0.5 ± 0.011 | 0.4745 ± 0.0046 | 0.438 ± 0.005 | 0.4079 ± 0.0022 | 0.3873 ± 0.00061
100 µM, coculture fibroblast: C12385 | 0.8406 ± 0.0052 | 0.73063 ± 0.00027 | 0.7216 ± 0.0008 | 0.6448 ± 0.0051 | 0.596 ± 0.0087 | 0.575 ± 0.0083 | 0.555 ± 0.0086 | 0.5328 ± 0.0037 | 0.523 ± 0.0093
100 µM, coculture fibroblast: H6013 | 0.891 ± 0.023 | 0.776 ± 0.0039 | 0.7618 ± 0.0073 | 0.7467 ± 0.005 | 0.732 ± 0.0073 | 0.7544 ± 0.0029 | 0.7062 ± 0.0041 | 0.693 ± 0.0079 | 0.651 ± 0.0091
100 µM, coculture fibroblast: H6019 | 0.77191 ± 0.00068 | 0.706 ± 0.036 | 0.701 ± 0.036 | 0.642 ± 0.038 | 0.61 ± 0.044 | 0.595 ± 0.04 | 0.561 ± 0.035 | 0.53 ± 0.043 | 0.508 ± 0.039
100 µM, coculture fibroblast: H6076 | 0.7904 ± 0.0046 | 0.591 ± 0.01 | 0.6183 ± 0.0055 | 0.59133 ± 0.00034 | 0.574 ± 0.0062 | 0.561 ± 0.016 | 0.574 ± 0.0096 | 0.576 ± 0.013 | 0.575 ± 0.016
100 µM, coculture fibroblast: H6231 | 0.77 ± 0.029 | 0.697 ± 0.048 | 0.649 ± 0.068 | 0.588 ± 0.061 | 0.55 ± 0.054 | 0.519 ± 0.052 | 0.504 ± 0.047 | 0.488 ± 0.039 | 0.467 ± 0.035
100 µM, coculture fibroblast: HADF | 0.855 ± 0.019 | 0.747 ± 0.018 | 0.71357 ± 0.00071 | 0.67329 ± 0.00013 | 0.6485 ± 0.0029 | 0.6593 ± 0.005 | 0.597 ± 0.0084 | 0.582 ± 0.016 | 0.538 ± 0.023
100 µM, coculture fibroblast: HCFa | 0.84 ± 0.027 | 0.752 ± 0.05 | 0.723 ± 0.07 | 0.696 ± 0.069 | 0.667 ± 0.078 | 0.676 ± 0.079 | 0.612 ± 0.072 | 0.602 ± 0.073 | 0.551 ± 0.074
100 µM, coculture fibroblast: HCPF | 0.7782 ± 0.0061 | 0.627 ± 0.096 | 0.6308 ± 0.00088 | 0.5766 ± 0.0026 | 0.544 ± 0.0095 | 0.5142 ± 0.0015 | 0.49863 ± 0.0003 | 0.481 ± 0.013 | 0.468 ± 0.0059
100 µM, coculture fibroblast: HHSteC | 0.855 ± 0.029 | 0.783 ± 0.018 | 0.757 ± 0.032 | 0.716 ± 0.027 | 0.703 ± 0.036 | 0.707 ± 0.039 | 0.647 ± 0.04 | 0.623 ± 0.031 | 0.577 ± 0.037
100 µM, coculture fibroblast: HMF | 0.797 ± 0.034 | 0.6199 ± 0.0017 | 0.589 ± 0.023 | 0.545 ± 0.027 | 0.52 ± 0.015 | 0.485 ± 0.015 | 0.48 ± 0.0065 | 0.4733 ± 0.0027 | 0.462 ± 0.0047
100 µM, coculture fibroblast: HPFa | 0.901 ± 0.012 | 0.807 ± 0.018 | 0.785 ± 0.016 | 0.744 ± 0.025 | 0.729 ± 0.024 | 0.734 ± 0.0083 | 0.653 ± 0.016 | 0.619 ± 0.012 | 0.544 ± 0.0096
100 µM, coculture fibroblast: HUF | 0.859 ± 0.0086 | 0.739 ± 0.024 | 0.715 ± 0.024 | 0.633 ± 0.018 | 0.57 ± 0.014 | 0.544 ± 0.021 | 0.514 ± 0.015 | 0.494 ± 0.0056 | 0.4882 ± 0.001
100 µM, coculture fibroblast: Hs5 | 0.8364 ± 0.0011 | 0.689 ± 0.032 | 0.6471 ± 0.0054 | 0.575 ± 0.0068 | 0.55 ± 0.012 | 0.507 ± 0.016 | 0.5 ± 0.0066 | 0.4704 ± 0.0013 | 0.4445 ± 0.0038
100 µM, coculture fibroblast: Hs27A | 0.888 ± 0.023 | 0.838 ± 0.034 | 0.8015 ± 0.0025 | 0.7785 ± 0.0018 | 0.7516 ± 0.0023 | 0.799 ± 0.018 | 0.712 ± 0.011 | 0.693 ± 0.014 | 0.626 ± 0.021
100 µM, coculture fibroblast: Hs343T | 0.803 ± 0.0096 | 0.614 ± 0.023 | 0.614 ± 0.043 | 0.574 ± 0.047 | 0.559 ± 0.057 | 0.532 ± 0.059 | 0.529 ± 0.072 | 0.515 ± 0.068 | 0.515 ± 0.069
100 µM, coculture fibroblast: WS1 | 0.789 ± 0.041 | 0.733 ± 0.011 | 0.73 ± 0.026 | 0.664 ± 0.044 | 0.631 ± 0.06 | 0.615 ± 0.063 | 0.604 ± 0.072 | 0.577 ± 0.083 | 0.562 ± 0.092

Source: the supplement of paper PMC6078165
